Test results published in patent US6841560B2, “Substituted isoquinoline derivatives and their use as anticonvulsants” (SmithKline Beecham p.l.c., priority 1997, dated 2005).
Some results were stated once for a whole list of compounds, not compound by compound.

target: novel receptor obtainable from rat forebrain tissue; test: Radioligand binding assay, displacement of [3H]-Compound A from rat forebrain tissue; details: competition with [3H]-Compound A (usually 20 nM), room temperature, 1 hour

Compound	pKi
CN1CCc2ccc(NC(=O)c3ccc(C(C)(C)C)cc3)cc2C1 [Example 5, N-(2-Methyl-1,2,3,4-tetrahydroisoquinolin-7-yl)-4-t-butylbenzamide]	greater than 7
CC(C)Oc1ccc(C(=O)Nc2ccc3c(c2)CN(C)CC3)cc1 [Example 6, N-(2-Methyl-1,2,3,4-tetrahydroisoquinolin-7-yl)-4-iso-propoxybenzamide]	greater than 7
CN1CCc2ccc(NC(=O)c3ccc(Oc4ccccc4)cc3)cc2C1 [Example 7, N-(2-Methyl-1,2,3,4-tetrahydroisoquinolin-7-yl)-4-phenoxybenzamide]	greater than 7
